Measurements reported in patent publication US20180011102A1, “THE PROTEIN KINASE ACTIVITY OF PHOSPHOGLYCERATE KINASE 1 AS A TARGET FOR CANCER TREATMENT AND DIAGNOSIS” (Board of Regents, The University of Texas System, priority 2015, published 2018).
Results are given in words; binding and its absence hold for the method and conditions named. In cells and extracts the contact can be indirect. Some binding calls cover weakened binding; strength is not graded here. For part of these data: Tags and fused reporters may be left off the sequences shown.

By UniProt entry, the sequences of proteins in these tests, tags left out. Residues count along the entry.
UniProt Q15388: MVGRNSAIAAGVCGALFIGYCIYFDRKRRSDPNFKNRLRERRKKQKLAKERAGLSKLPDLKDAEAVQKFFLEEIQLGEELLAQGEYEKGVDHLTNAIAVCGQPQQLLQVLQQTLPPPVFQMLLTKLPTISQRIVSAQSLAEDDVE
UniProt Q15118, residues 29-436: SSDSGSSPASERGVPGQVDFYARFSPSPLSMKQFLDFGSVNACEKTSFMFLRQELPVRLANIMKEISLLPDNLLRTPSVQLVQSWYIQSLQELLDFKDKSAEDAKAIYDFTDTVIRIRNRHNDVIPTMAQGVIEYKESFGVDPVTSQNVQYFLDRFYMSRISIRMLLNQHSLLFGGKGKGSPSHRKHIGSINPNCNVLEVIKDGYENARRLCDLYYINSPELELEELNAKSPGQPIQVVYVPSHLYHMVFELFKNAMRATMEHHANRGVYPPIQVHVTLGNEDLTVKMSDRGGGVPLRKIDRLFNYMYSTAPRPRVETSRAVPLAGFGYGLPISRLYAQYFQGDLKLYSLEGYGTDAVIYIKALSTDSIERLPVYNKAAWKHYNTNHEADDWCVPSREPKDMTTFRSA
UniProt P28482: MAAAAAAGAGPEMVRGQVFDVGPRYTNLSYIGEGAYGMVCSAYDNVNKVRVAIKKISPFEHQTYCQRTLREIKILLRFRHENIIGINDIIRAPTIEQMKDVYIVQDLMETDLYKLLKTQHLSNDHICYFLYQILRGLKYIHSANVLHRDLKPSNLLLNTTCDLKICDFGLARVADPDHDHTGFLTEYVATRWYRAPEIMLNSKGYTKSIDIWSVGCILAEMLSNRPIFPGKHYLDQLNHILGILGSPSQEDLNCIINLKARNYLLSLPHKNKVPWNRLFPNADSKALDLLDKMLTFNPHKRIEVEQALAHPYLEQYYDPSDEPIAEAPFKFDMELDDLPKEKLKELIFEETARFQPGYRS

Columns and labels:
[1] = target: endogenous PGK1 (phosphoglycerate kinase 1) of U87 human GBM cells (human) (UniProt P00558); assay: streptavidin pull-down from mitochondrial fractions of U87 cells (FIG. 14C)
[2] = target: endogenous TOM20 of U87 cells (human) (UniProt Q15388); assay: co-immunoprecipitation from U87 cells (FIG. 3A)
[3] = target: T1, GST-PGK1 (wild type), bacterially purified (human) (UniProt P00558); assay: in vitro GST pull-down, purified recombinant proteins (FIG. 10G)
T1 sequence (looked up): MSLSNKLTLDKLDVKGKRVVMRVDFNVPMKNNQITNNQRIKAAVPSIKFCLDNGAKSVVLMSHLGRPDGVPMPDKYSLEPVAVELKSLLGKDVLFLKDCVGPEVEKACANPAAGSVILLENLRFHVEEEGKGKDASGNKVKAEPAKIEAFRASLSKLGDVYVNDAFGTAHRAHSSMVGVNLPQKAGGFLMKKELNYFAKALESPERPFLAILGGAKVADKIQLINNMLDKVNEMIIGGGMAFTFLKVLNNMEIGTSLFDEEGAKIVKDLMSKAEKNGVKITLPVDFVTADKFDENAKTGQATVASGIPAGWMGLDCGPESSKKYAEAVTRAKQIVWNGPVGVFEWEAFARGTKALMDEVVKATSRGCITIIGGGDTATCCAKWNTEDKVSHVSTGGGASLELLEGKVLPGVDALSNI

Substance: SFB-PDHK1 expressed in U87 cells (from UniProt Q15118 29-436) (enzyme)
- binding [1]: binds

Substance: endogenous PGK1 (phosphoglycerate kinase 1) of U87 human GBM cells (from UniProt P00558 2-417) (enzyme)
- binding [2]: binds

Substance: purified recombinant active His-ERK2 (from UniProt P28482 1-360) (enzyme)
- binding [3]: binds
